In patent publication US20240140952A1, “INHIBITORS AND DEGRADERS OF JANUS KINASE 2” (H. LEE MOFFITT CANCER CENTER AND RESEARCH INSTITUTE, INC., priority 2021, published 2024):

Tested on: UKE-1 cells
Experiment: UKE-1 cell viability assay (CellTiter Blue)
Conditions: UKE1, 72 h, read-out: UKE-1 cell growth inhibition IC50

Work on `C[C@@H]1CCN(C(=O)CC#N)C[C@@H]1N(C)c1ncnc2[nH]ccc12` [Tofacitinib, reference compound] yielded an IC50 of 910 ± 100 nM.
